In PMC13065327:
Results are given in words; binding and its absence hold for the method and conditions named. Binding seen in cells or lysates may run through a third protein. A yes stands for co-enrichment or nearness to the bait. Other partners may have been found. Tags and fused reporters may be left off the sequences shown.

Target: T1, Dsn1-6His-3FLAG (S. cerevisiae) (UniProt P40568)
T1 sequence: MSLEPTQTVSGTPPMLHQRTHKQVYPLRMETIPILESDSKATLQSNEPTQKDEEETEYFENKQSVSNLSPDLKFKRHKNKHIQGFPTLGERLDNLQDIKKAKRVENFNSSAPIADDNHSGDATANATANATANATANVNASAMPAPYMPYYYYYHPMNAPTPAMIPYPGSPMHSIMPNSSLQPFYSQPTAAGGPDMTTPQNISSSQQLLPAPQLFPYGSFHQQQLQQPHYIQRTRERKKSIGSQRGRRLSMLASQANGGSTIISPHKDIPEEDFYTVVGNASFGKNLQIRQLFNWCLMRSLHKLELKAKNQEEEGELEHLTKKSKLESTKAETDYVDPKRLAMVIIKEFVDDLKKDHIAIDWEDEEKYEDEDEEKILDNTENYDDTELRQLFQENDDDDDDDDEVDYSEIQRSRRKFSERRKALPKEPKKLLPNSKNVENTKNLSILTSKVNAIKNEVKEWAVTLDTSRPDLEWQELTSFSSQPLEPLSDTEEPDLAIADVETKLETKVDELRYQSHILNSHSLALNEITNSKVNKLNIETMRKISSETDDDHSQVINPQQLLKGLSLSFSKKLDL
Experiment: affinity purification with mass spectrometry; anti-FLAG antibody on Protein G Dynabeads, Dsn1-6His-3FLAG from lysates of SK1 cells at mitotic metaphase, meiotic prophase, metaphase I and metaphase II (SynSAC, 250 uM ABA); BH0.15 buffer (150 mM KCl, 25 mM HEPES-KOH pH 8.0, 2 mM MgCl2, 0.1% NP-40), 3 hr at 4 C; DIA-MS of eluates, 95% phospho-enriched; no tag control

B1: Mps1 (enzyme, UniProt P54199 1-764)
chain: MSTNSFHDYVDLKSRTNTRQFSDDEEFTTPPKLSNFGSALLSHTEKTSASEILSSHNNDKIANRLEEMDRSSSRSHPPPSMGNLTSGHTSTSSHSTLFGRYLRNNHQTSMTTMNTSDIEINVGNSLDKSFERIRNLRQNMKEDITAKYAERRSKRFLISNRTTKLGPAKRAMTLTNIFDEDVPNSPNQPINARETVELPLEDSHQTNFKETKRNTDYDSIDFGDLNPIQYIKKHNLPTSDLPLISQIYFDKQREENRQAALRKHSSRELLYKSRSSSSSLSSNNLLANKDNSITSNNGSQPRRKVSTGSSSSKSSIEIRRALKENIDTSNNSNFNSPIHKIYKGISRNKDSDSEKREVLRNISINANHADNLLQQENKRLKRSLDDAITNENINSKNLEVFYHRPAPKPPVTKKVEIVEPAKSASLSNNRNIITVNDSQYEKIELLGRGGSSRVYKVKGSGNRVYALKRVSFDAFDDSSIDGFKGEIELLEKLKDQKRVIQLLDYEMGDGLLYLIMECGDHDLSQILNQRSGMPLDFNFVRFYTKEMLLCIKVVHDAGIVHSDLKPANFVLVKGILKIIDFGIANAVPEHTVNIYRETQIGTPNYMAPEALVAMNYTQNSENQHEGNKWKVGRPSDMWSCGCIIYQMIYGKPPYGSFQGQNRLLAIMNPDVKIPFPEHTSNNEKIPKSAIELMKACLYRNPDKRWTVDKVLSSTFLQPFMISGSIMEDLIRNAVRYGSEKPHISQDDLNDVVDTVLRKFADYKI
  binding: binds

B2: Bik1 (protein, UniProt P11709 1-440)
chain: MDRYQRKIGCFIQIPNLGRGQLKYVGPVDTKAGMFAGVDLLANIGKNDGSFMGKKYFQTEYPQSGLFIQLQKVASLIEKASISQTSRRTTMEPLSIPKNRSIVRLTNQFSPMDDPKSPTPMRSFRITSRHSGNQQSMDQEASDHHQQQEFGYDNREDRMEVDSILSSDRKANHNTTSDWKPDNGHMNDLNSSEVTIELREAQLTIEKLQRKQLHYKRLLDDQRMVLEEVQPTFDRYEATIQEREKEIDHLKQQLELERRQQAKQKQFFDAENEQLLAVVSQLHEEIKENEERNLSHNQPTGANEDVELLKKQLEQLRNIEDQFELHKTKWAKEREQLKMHNDSLSKEYQNLSKELFLTKPQDSSSEEVASLTKKLEEANEKIKQLEQAQAQTAVESLPIFDPPAPVDTTAGRQQWCEHCDTMGHNTAECPHHNPDNQQFF
  binding: binds

B3: Bir1 (protein, UniProt P47134 1-954)
chain: MDGQIDKMEKRYSMTKLENRLRTFQDGVALEKKKLKWSFKVIPYQAMAKLGFYFDPVIDPKTSKLKKDSVRCCYCHRQTYNVRDCRSKRKDVLETLSNIMRQHLTVTDNKQVCLLIYLRNKLLTDYSFHMGVSDWKNDKYFSNPDDENVINLRKFTFQDNWPHSGSQNEHPLGIEKMVNAGLMRYDSSIEGLGDPSMDKTLMNDTCYCIYCKQLLQGWSINDDPMSRHYKVSQNGNCYFFQTRNRFERIKNDNDSITKNCEVSPTLGENGKREVINTKTASQRQCPLFESPPSSTGPQLDDYNEKTDISVIQHNISVLDGAQGENVKRNSVEEKEQINMENGSTTLEEGNINRDVLADKKEVISTPTAKEIKRPNVQLTQSSSPIKKKRKFKRISPRKIFDEEDSEHSLNNNSANGDNKDKDLVIDFTSHIIKNRDVGRKNAILDDSTDEFSFSNQGHNTFDIPIPTSSHLLKGIDSDNDNVIREDDTGINTDTKGASSKHEKFSVNSEEDLNFSEVKLTGRDSSTNILIRTQIVDQNLGDIDRDKVPNGGSPEVPKTHELIRDNSEKREAQNGEFRHQKDSTVRQSPDILHSNKSGDNSSNITAIPKEEQRRGNSKTSSIPADIHPKPRKNLQEPRSLSISGKVVPTERKLDNINIDLNFSASDFSPSSQSEQSSKSSSVISTPVASPKINLTRSLHAVKELSGLKKETDDGKYFTNKQETIKILEDVSVKNETPNNEMLLFETGTPIASQENKSRKLFDEEFSGKELDIPIDSSTVEIKKVIKPEFEPVPSVARNLVSGTSSYPRNSRLEEQRKETSTSLADNSKKGSSFNEGNNEKEPNAAEWFKIDENRHLVKNYFHDLLKYINNNDATLANDKDGDLAFLIKQMPAEELDMTFNNWVNLKVQSIKREFIDDCDKKLDILRRDYYTATNFIETLEDDNQLIDIAKKMGIL
  binding: binds

B4: Lrs4 (protein, UniProt Q04087 1-347)
chain: MTTLLQLLSNYYKAKLDSERIYNEYVQSQYEFASLDKLNNNKGDPKKVVDETLFLQRQIAQLNKQLQLSFQENEKLLSVQKNQKALYQSKLSSKDAFIDDLKLKLKVEQISVDKHNKERTPSTGRDEQQRNSKAAHTSKPTIHLLSPIVNRDKPNNQTNDRGGNDPDSPTSQRRSRGLRSLLSSGKNTIFDSISKNLDDEINENAHIRNDTTSSKIAGKSPSRLSALQKSPELRKERNNMILKEHILRSKDDQNITSSRKLDNIELSSIGDSTAMTSRSSTVNANDILGNEENDGITKLKRVNKLTSSPVKRDCSTNKKRKLTKQRIATLPNSDEELSNNLNVDEFV
  binding: binds

B5: Sli15 (protein, UniProt P38283 1-698)
chain: MDWAIKAARKKTQRKPGSTRSIIETLDDLNNLTTDAHSEINQRLYESSEWLRNNVYMNTLKYEDKKMEESLISPENTHNKMDVEFPKMKGEYELSNSQNDAAKDVTKTPRNGLHNDKSITPKSLRRKEVTEGMNRFSIHDTNKSPVEPLNSVKVDANESEKSSPWSPYKVEKVLRESSKTSESPINTKRFDNQTWAAKEEMENEPILQALKKAESVKVKPPPNSGIARSQRRSNMFVPLPNKDPLIIQHIPPTKSSGSIPKVRTVKESPIAFKKKSTINSPAIRAVENSDTAGSTKASSVFDRLSSIPTKSFENKISRGNVGHKYSSSSIDLTGSPMKKVSQKFKSINSTDTDMQEALRDIFSVKNKITKNNSPKGKNSRKSSIPRFDKTSLKLTTHKKLAIIAEQKKKSKHSSDVHKTGSRPHSISPTKISVDSSSPSKEVKNYYQSPVRGYLRPTKASISPNKNKNLTTSQTPHRLKIKEKTLRKLSPNIADISKPESRKSKNYRLTNLQLLPPAEAERDDLKKKFDKRLSGIMRSQQEHHRRKQEKQKRMSHLEQDLKKQTSFSNDYKDIRLKESLAPFDNHVRDTINKNTAFSTDNILATINTVDHREIIGNVTPKIASVNDSLPEINTDSEDEASVTLAAWAKSPYLQEQLIRQQDINPQTIFGPIPPLHTDEIFPNPRLNRLKPRQIVPKRS
  binding: binds

B6: Cin8 (protein, UniProt P27895 1-1000)
chain: MPAENQNTGQDRSSNSISKNGNSQVGCHTVPNEELNITVAVRCRGRNEREISMKSSVVVNVPDITGSKEISINTTGDTGITAQMNAKRYTVDKVFGPGASQDLIFDEVAGPLFQDFIKGYNCTVLVYGMTSTGKTYTMTGDEKLYNGELSDAAGIIPRVLLKLFDTLELQQNDYVVKCSFIELYNEELKDLLDSNSNGSSNTGFDGQFMKKLRIFDSSTANNTTSNSASSSRSNSRNSSPRSLNDLTPKAALLRKRLRTKSLPNTIKQQYQQQQAVNSRNNSSSNSGSTTNNASSNTNTNNGQRSSMAPNDQTNGIYIQNLQEFHITNAMEGLNLLQKGLKHRQVASTKMNDFSSRSHTIFTITLYKKHQDELFRISKMNLVDLAGSENINRSGALNQRAKEAGSINQSLLTLGRVINALVDKSGHIPFRESKLTRLLQDSLGGNTKTALIATISPAKVTSEETCSTLEYASKAKNIKNKPQLGSFIMKDILVKNITMELAKIKSDLLSTKSKEGIYMSQDHYKNLNSDLESYKNEVQECKREIESLTSKNALLVKDKLKSKETIQSQNCQIESLKTTIDHLRAQLDKQHKTEIEISDFNNKLQKLTEVMQMALHDYKKRELDLNQKFEMHITKEIKKLKSTLFLQLNTMQQESILQETNIQPNLDMIKNEVLTLMRTMQEKAELMYKDCVKKILNESPKFFNVVIEKIDIIRVDFQKFYKNIAENLSDISEENNNMKQYLKNHFFKNNHQELLNRHVDSTYENIEKRTNEFVENFKKVLNDHLDENKKLIMQNLTTATSAVIDQEMDLFEPKRVKWENSFDLINDCDSMNNEFYNSMAATLSQIKSTVDTSSNSMNESISVMKGQVEESENAISLLKNNTKFNDQFEQLINKHNMLKDNIKNSITSTHSHITNVDDIYNTIENIMKNYGNKENATKDEMIENILKEIPNLSKKMPLRLSNINSNSVQSVISPKKHAIEDENKSSENVDNEGSRKMLKIE
  binding: binds

B7: Slk19 (protein, UniProt Q08581 1-821)
chain: MNEVPTTPVRLILGQAQQREQNSENCSQERNPRTFNSEPDSSFNSPGSSQFVIHPHEPLEKEKDEKQDLDRSIDYGRSSALNNKNNANPLENIDINKMFDDKKSDSGTNDDKGGASTSDKHVLALNYSPIRVEMNSSEKRSDKNVDVDENDKEGSHINKKLKLQLESVPDLKQSSTKDIINDKEEIMSSPMAIDMIETNISPNKFIINDGVERNDSFNINTDTLKLENDINEKQQEEDFIKSNSNNVVNIDNAYKEKEDEENDITNSHINRLTPLYETSARESNSNEEGRNDYDDDNQLDIRHDNFQIVAKRNEELTDQIYHLNQMLNSLISKNESLSFQYEKLNKNHQLLIDLTNEKLDKLNTERESDIAKVEKFKKRIKELNTEIKVLNSNQKILQEKFDASITEVNHIKGEHENTVNTLQQNEKILNDKNVELENMKAELKGNNDKLSEYETTLNDLNSRIVQLNDKIESTDIVLKSKENELDNLKLSLKETLSISKDFNDSDLIGQINELISTKNNLQQKMDDLNNLNDDNLKVVQDKLIKNEETLKLKEAEIDSLNSEMDELKKQITSKDDEFKMWQSKYETVEDEAKIRNAEVTELNGDIEDLKESKLHLEETITELENKVHKLENECELEKQKFEKTSLELESLQLKNSNIQAEHIKELENLHENLISLQNELKISSDRITTLTKENEVLMEQNNNNNNSVTLSNDQKDRDDEKIKSLGKQVQDWKEKYEAKEKDTNKRLKLLAEDLYIQYSSKHEQKVKLLKKGYENKYQNKFDQLNLENKTLSEEIEQLNKQLSSEREEKQELLKLLENEKK
  binding: binds
